# PubChem BioAssay AID1671190 (National Center for Advancing Translational Sciences (NCATS), 2021)
# By UniProt entry, the sequences of proteins in these tests, tags left out.
# UniProt P18054, whole entry, looked up: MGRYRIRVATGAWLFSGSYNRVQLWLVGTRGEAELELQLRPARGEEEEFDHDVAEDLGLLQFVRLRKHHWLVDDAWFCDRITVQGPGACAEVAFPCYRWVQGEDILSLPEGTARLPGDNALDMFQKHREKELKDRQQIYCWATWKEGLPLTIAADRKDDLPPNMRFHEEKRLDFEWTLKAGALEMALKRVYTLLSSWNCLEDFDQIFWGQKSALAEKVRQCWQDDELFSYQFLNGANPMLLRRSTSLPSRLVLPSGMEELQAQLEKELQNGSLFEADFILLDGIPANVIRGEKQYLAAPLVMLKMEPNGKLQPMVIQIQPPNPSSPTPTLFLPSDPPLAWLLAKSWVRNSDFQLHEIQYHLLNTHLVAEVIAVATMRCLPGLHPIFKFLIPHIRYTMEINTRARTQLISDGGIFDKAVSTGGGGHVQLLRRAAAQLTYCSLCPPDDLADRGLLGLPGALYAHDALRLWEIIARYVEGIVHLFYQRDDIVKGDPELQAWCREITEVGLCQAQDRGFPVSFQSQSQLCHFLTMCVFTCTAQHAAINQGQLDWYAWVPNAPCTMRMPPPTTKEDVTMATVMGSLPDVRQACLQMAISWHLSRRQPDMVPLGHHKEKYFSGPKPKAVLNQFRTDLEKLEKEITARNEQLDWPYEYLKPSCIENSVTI
# Out of some 580,000 compounds screened, about 6,100 (1.1%) were called active. Inconclusive means that the source gave no clear call. Such entries were picked first, then a sample of the others. The call rests on the fitted dose curve; in most records, active means well fitted inhibition curve with a large enough effect; inconclusive means small, poorly fitted or top-dose-only effect, or another doubt; inactive means no such curve, though single readings can be large or run the other way. Potencies of inconclusive entries are doubtful fits and often do not repeat.
# Target: Polyunsaturated fatty acid lipoxygenase ALOX12 (Homo sapiens) (UniProt P18054)
# Experiment: Primary qHTS assay for inhibitors of human arachidonate 12S-lipoxygenase (ALOX12): Round 2
# Details: purified 12hLO, xylenol orange hydroperoxide absorbance; activity change, negative = inhibition: at 108 µM (top of the series) unless noted
# In short: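 Hydroperoxide product was detected by ferrous iron/xylenol orange as the 573 to 405 nm absorbance ratio. Arachidonic acid at 40 uM (final) was turned over for 30 min at room temperature by 150 nM human 12hLO, pH 7.0 Hepes buffer, after 15 min compound preincubation.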
# On the % scale 0 is the no-effect control and ±100 the full control effect; potency means the concentration at half of the fitted maximal effect.
SMILES,Potency,"activity change, negative = inhibition"
CCC(C)NC(=O)c1[nH]c2cc(OC)ccc2c1Sc1ccc(C)cc1 (stereo not drawn),"inconclusive: 44.7 µM [inhibitor, partial curve, poor fit]",
O=C(CSc1nnc(-c2ccccn2)n1Cc1ccco1)c1ccccc1,"inconclusive: 6.31 µM [inhibitor, full curve, poor fit]",
Cc1nn(CCC#N)c(C)c1[C@@H]1C=C[C@@H](NC(=O)NC(C)C)C1,"inconclusive: 56.2 µM [inhibitor, full curve]",
COC1CCN(C(=O)c2ccnc(-c3nnc4ccc(N(C)C)nn34)c2)CC1,"inconclusive: 31.6 µM [inhibitor, partial curve]",
COc1ccc(Cn2ccc3ccc(C(=O)NO)cc32)cc1,"inconclusive: 24.3 µM [inhibitor, partial curve, poor fit]",
c1ccc(Cn2c(CSc3nnnn3-c3ccccc3)nc3ccccc32)cc1,"inconclusive: 63.1 µM [inhibitor, partial curve, poor fit]",
O=C(c1ccccc1Br)N(Cc1ccc2cc[nH]c2c1)C1CC1,"inconclusive: 39.8 µM [inhibitor, partial curve, poor fit]",
CC(=O)c1cccc(S(=O)(=O)NC2CCSc3ccccc32)c1 (stereo not drawn),"inconclusive: 79.4 µM [inhibitor, partial curve, poor fit]",
Cc1cccc(NC(=O)c2ccc3c(c2)NC(=O)CS3)c1,"inconclusive: 39.8 µM [inhibitor, partial curve, poor fit]",
CC(=O)N1CCC2(CCCN(Cc3ccc(C#N)cc3)C2)CC1,"inconclusive: 31.6 µM [inhibitor, single point]",
C[C@@H](NS(=O)(=O)c1ccc(Cl)cc1)c1onc(-c2ccc(F)cc2)c1C(=O)O,,inactive: 1.26% [at 176 µM]
CN(C(=O)C1CCCO1)c1nnc(-c2ccncc2)s1 (stereo not drawn),,inactive: 38.4%
CCCCn1nc2cc(C(=O)NCC34CC5CC(CC(C5)C3)C4)ccc2c1OCC,"inconclusive: 79.4 µM [inhibitor, single point]",
CCOc1ccc(C2C(C(=O)c3cccs3)=C(O)C(=O)N2Cc2cccnc2)cc1OC (stereo not drawn),"inconclusive: 35.5 µM [inhibitor, partial curve, poor fit]",
Cc1ccccc1NS(=O)(=O)c1ccc(C(=O)N2CCCC(C(F)(F)F)C2)cc1 (stereo not drawn),,inactive: -9.07%
CCCCCCCc1n[nH]c(=S)n1Cc1ccccc1,"inconclusive: 79.4 µM [inhibitor, partial curve, poor fit]",
CCCCCCCCCCCCCCCCN(C)C,,inactive: -5.18%
CCC(=O)C1=C(c2ccc(OC)cc2)N(C(=O)CC)n2cnnc2S1,"inconclusive: 50.1 µM [inhibitor, partial curve, poor fit]",
Cc1ccc(C(=O)Nc2cccc(N3C(=O)C4CCC(C)CC4C3=O)c2)cc1 (stereo not drawn),"inconclusive: 112 µM [inhibitor, partial curve, poor fit]",
CCN(Cc1ccccc1)C(=O)CSc1nc(C)cc(=O)[nH]1,"inconclusive: 39.8 µM [inhibitor, partial curve, poor fit]",
O=C(OCc1nc2ccccc2o1)c1cccc(O)c1,,inactive: 113%

# Single values from above:
# Value for Cc1cccc(NC(=O)c2ccc3c(c2)NC(=O)CS3)c1 under Potency: inconclusive: 39.8 µM [inhibitor, partial curve, poor fit]
# Value for CCCCn1nc2cc(C(=O)NCC34CC5CC(CC(C5)C3)C4)ccc2c1OCC under Potency: inconclusive: 79.4 µM [inhibitor, single point]
# Value for CCCCCCCCCCCCCCCCN(C)C under activity change, negative = inhibition: inactive: -5.18%
# Value for CCC(=O)C1=C(c2ccc(OC)cc2)N(C(=O)CC)n2cnnc2S1 under Potency: inconclusive: 50.1 µM [inhibitor, partial curve, poor fit]

# Next part

SMILES,Potency,"activity change, negative = inhibition"
COCCn1c(-c2ccc(Cl)cc2)n[nH]c1=S,"inconclusive: 7.94 µM [inhibitor, full curve]",
COc1cc(/C=C2\C(=O)N(c3cccc(C(=O)O)c3)N=C2C)ccc1OCc1ccccc1,"inconclusive: 100 µM [inhibitor, single point]",
Cc1cccc(C)c1NC(=O)Cn1c(=O)n(-c2ccc(F)cc2)c(=O)c2c1cc(C)n2C,"inconclusive: 44.7 µM [inhibitor, partial curve, poor fit]",
CCCCN(CC)C(=O)CSc1n[nH]c(=O)c2cc(-c3ccc(OC)c(OC)c3)nn12,"inconclusive: 141 µM [inhibitor, single point]",
CN(C)c1ccc(N=C/C=C2/N(C)c3ccccc3C2(C)C)cc1,"inconclusive: 44.7 µM [inhibitor, partial curve, poor fit]",
Cc1c2ccccc2cc(Cc2ccccc2)[n+]1C,active: 5.62 µM,
O=C(OCc1cn([C@@H]2CN(C(=O)C3CCCCC3)[C@@H](c3ccc(Cl)cc3)C[C@H]2O)nn1)c1ccccc1,,inactive: -1.32%
C[C@H]1CN([C@@H](C)CO)C(=O)c2cc(/C=C/c3ccccc3)cnc2O[C@H]1CN(C)C(=O)c1cccc(F)c1,"inconclusive: 112 µM [inhibitor, single point]",
CC(=O)C(Sc1ccc(C)cc1)(Sc1ccc(C)cc1)C(C)=O,"inconclusive: 39.8 µM [inhibitor, single point]",
O[C@H]1C[C@H](c2ccc(Cl)cc2)N(Cc2cccs2)C[C@@H]1n1cc(C2CC2)nn1,active: 44.7 µM,
CC(=O)Nc1cc(-c2cccc(CO)c2)cn2c(-c3ccc(F)cc3)cnc12,,inactive: -28.6%
CSc1nncc(/C(C)=N\Nc2ccccc2C)n1,"inconclusive: 50.1 µM [inhibitor, partial curve, poor fit]",
O=C(Nc1cccc2ccccc12)O[C@@H]1CO[C@H]2[C@@H]1OC[C@@H]2NS(=O)(=O)Cc1ccccc1,,inactive: 0.499%
CN(Cc1ccccc1)C(=O)C1CCN(Cc2cc3ccccc3n2Cc2ccccc2)CC1,active: 44.7 µM,
COc1ccccc1CNc1nc(-c2ccoc2)nc2ccccc12,"inconclusive: 15.8 µM [inhibitor, partial curve, poor fit]",
COCCN1CCCCCC(O)c2cc(C(=O)NCCCN(C)C)ccc21 (stereo not drawn),,inactive: 45.5%
CCOC(=O)c1ccc(N2C(=O)c3n[nH]c(C)c3C2c2ccc(OC)cc2OC)cc1 (stereo not drawn),,inactive: 0%
O=C(Nc1ccc(S(=O)(=O)N2CCN(c3ccccc3)CC2)cc1)c1cccs1,"inconclusive: 0.0282 µM [inhibitor, full curve, poor fit]",
O=C(NCc1ccco1)c1ccccc1NS(=O)(=O)c1ccc(Br)s1,"inconclusive: 39.8 µM [inhibitor, partial curve]",
CCOC(=O)c1sc(=S)sc1SCc1cccc(C(F)(F)F)c1,"inconclusive: 8.91 µM [inhibitor, full curve, poor fit]",
COc1ccc(NC(=O)N(C)C[C@@H]2Oc3ccc(NC(=O)NC(C)C)cc3CC(=O)N([C@H](C)CO)C[C@@H]2C)cc1,,inactive: -25.6%

SMILES,Potency,"activity change, negative = inhibition"
N#CCOC(=O)C1c2ccccc2Oc2ccccc21,"inconclusive: 126 µM [inhibitor, single point]",
COc1ccc(C(C(=O)NC(C)(C)C)N(C(=O)CNC(=O)c2cccs2)c2ccc(NC(C)=O)cc2)cc1OC (stereo not drawn),"inconclusive: 56.2 µM [inhibitor, partial curve, poor fit]",
CC(=O)Nc1ccc(S(=O)(=O)N(C#N)c2nc(C)cc(C)n2)cc1,"inconclusive: 3.98 µM [inhibitor, full curve, poor fit]",
COCCN1CCCN(C(=O)c2ccccc2Cl)c2ccccc21,"inconclusive: 15.8 µM [inhibitor, full curve]",
O=c1oc2ccccc2c(O)c1Sc1ccc(Cl)cc1,"inconclusive: 35.5 µM [inhibitor, partial curve, poor fit]",
CCOc1ccccc1NC(=S)NC(=O)c1ccco1,"inconclusive: 39.8 µM [inhibitor, partial curve, poor fit]",
Cc1cc(Cl)ccc1NC(=O)CN(c1ccccc1F)S(=O)(=O)c1ccccc1,,inactive: 6.4%
CCOC(=O)C1CCCN(CCSc2ccc(C)cc2)C1 (stereo not drawn),"inconclusive: 56.2 µM [inhibitor, partial curve, poor fit]",
Cc1nnc(N2CCCC(C(=O)NCc3ccc(OC(C)C)cc3)C2)c2nn(-c3ccccc3)c(C)c12 (stereo not drawn),"inconclusive: 15.8 µM [inhibitor, partial curve, poor fit]",
Oc1ccc(/C=C/c2nc3c(ccc4ccccc43)s2)cc1,"inconclusive: 22.4 µM [inhibitor, partial curve, poor fit]",
COc1ccc(NC(=O)Nc2cccs2)cn1,"inconclusive: 35.5 µM [inhibitor, full curve, poor fit]",
CCCCc1c(-c2ccccc2OC)ncn1C(C)c1ccccc1 (stereo not drawn),"inconclusive: 44.7 µM [inhibitor, partial curve, poor fit]",
N#Cc1cccc(-c2nc(NCc3ccccc3)c3ccccc3n2)c1,"inconclusive: 8.91 µM [inhibitor, full curve, poor fit]",
Cc1noc(C)c1-c1cc(Nc2ccc(F)cc2)ncn1,"inconclusive: 39.8 µM [inhibitor, partial curve, poor fit]",
CC(C)CN(C(=O)COC(=O)C12CC3CC(CC(O)(C3)C1)C2)C1CCS(=O)(=O)C1 (stereo not drawn),"inconclusive: 50.1 µM [inhibitor, partial curve, poor fit]",
Cc1ccc(/C=C/c2onc(C)c2S(=O)(=O)N2CCC(C(=O)NCc3ccc(N(C)C)cc3)CC2)cc1,"inconclusive: 126 µM [inhibitor, partial curve, poor fit]",
CCCCCCc1nc2c(=O)[nH]c3ccccc3c2o1,,inactive: 23.5%
COCCn1c(=O)c2c(nc(-n3nc(C)cc3C)n2Cc2ccc(OC)cc2)n(C)c1=O,,inactive: -4.81%
Cc1ccc(NC(=O)C(NC2CCCc3ccccc32)c2ccccc2)c([N+](=O)[O-])c1 (stereo not drawn),"inconclusive: 2 µM [inhibitor, full curve, poor fit]",
Cn1cccc1C(=O)N1CCC2(CC1)CN(Cc1ccccc1)CC2CO (stereo not drawn),"inconclusive: 2 µM [inhibitor, full curve, poor fit]",
CCC(Sc1nnc(-c2ccc(OC)cc2)c(-c2ccc(OC)cc2)n1)C(=O)Nc1cccc(OC)c1 (stereo not drawn),"inconclusive: 178 µM [inhibitor, partial curve, poor fit]",
